Patent US6916802B2, “Amino ceramide-like compounds and therapeutic methods of use” (Genzyme Corporation, priority 2002, dated 2005)

Tested on: MDCK cells
Test: Cell growth of treated MDCK cells, total protein (Specific Example 2)
Assay type: cell-based, canine
Procedure: Cell culture and lipid extraction. One half million of MDCK cells were seeded into 10 cm style dish containing 8 ml serum free DMEM supplemented medium. Shayman, J. A. et al., J. Biol. Chem., 265:12135-12138 (1990). After 24 h the medium was replaced with 8 ml of the medium containing 0, 11.8, 118 or 1180 nM D-t-P4, D-t-3′,4′-ethylenedioxy-P4 or D-4′-hydroxy)-P4. The GlcCer synthase inhibitors were added into the medium as a one to one complex with delipidated BSA. Abe, A. et al., J. Lipid. Res., 36:611-621 (1995); Abe, A. et al., Biochim. Biophys. Acta, 1299:331-341 (1996). The cells were incubated for 24 h or 48 h with the inhibitors. After the incubation, the cells were washed twice with 8 ml of cold PBS and fixed with 2 ml of cold methanol. The fixed cells were scraped and transferred to a glass tube. Another one ml of methanol was used to recover the remaining cells in the dish.
Effects of D-threo-P4, D-threo4′-hydroxy-P4 and D-threo-3,4′-ethylenedioxy-P4 on GlcCer Synthesis and Cell Growth. To confirm the cellular specificity of D-threo-3′,4′-ethylenedioxy-P4 and D-threo-(4′-hydroxy)-P4 as compared to D-threo-P4, MDCK cells were treated with different concentrations of the inhibitors. The total protein amount in each sample was determined by the BCA method. In GlcCer analysis, lipid samples and standard lipids were applied to the same HPTLC plate pre-treated with borate and developed in a solvent consisting of C/M/W (63/24/4). The level of GlcCer was estimated from a standard curve obtained using a computerized image scanner. The values were normalized on the basis of the phospholipid content. The results are shown in FIG. 7, wherein each bar is the average values from three dishes, with error bars corresponding to one standard deviation. In the control, the total protein and GlcCer were 414±47.4 μg/dish and 24.3±1.97 ng/nmol phosphate, respectively.

SMILES | ratio of cell protein to cellular phospholipid phosphate (11.3 nM) [mg protein/nmol phosphate] | ratio of cell protein to cellular phospholipid phosphate (113 nM) [mg protein/nmol phosphate] | ratio of cell protein to cellular phospholipid phosphate (1130 nM) [mg protein/nmol phosphate]
CCCCCCCCCCCCCCCC(=O)N[C@H](CN1CCCC1)[C@H](O)c1ccc(O)cc1 [D-threo-4′-hydroxy-P4, D-t-4′-hydroxy-1-phenyl-2-palmitoylamino-3-pyrrolidino-1-propanol] | 4.52±0.39 | 4.35±0.10 | 3.68±0.99
CCCCCCCCCCCCCCCC(=O)N[C@H](CN1CCCC1)[C@H](O)c1ccc2c(c1)OCCO2 [D-threo-3′,4′-ethylenedioxy-P4, D-t-3′,4′-ethylenedioxy-1-phenyl-2-palmitoylamino-3-pyrrolidino-1-propanol] | 5.05±0.21 | 4.84±0.90 | 3.97±0.29
